Laboratory results as given in PubChem BioAssay AID540276 (National Center for Advancing Translational Sciences (NCATS), 2011).
About 5,400 (1.8%) of roughly 300,000 compounds were called active. Inconclusive results, whose numbers are uncertain, are shown with a selection of clear calls. The call rests on the fitted dose curve; tested in HEK293 cells. Potencies of inconclusive entries are doubtful fits and often do not repeat.

test: qHTS for inhibitors of binding or entry into cells for Marburg Virus; conditions: Marburg virus pseudotyped entry inhibition, cell reporter; activity change, negative = inhibition: at 37.8 µM (top of the series) unless noted
On the % scale 0 is the no-effect control and ±100 the full control effect; potency means the concentration at half of the fitted maximal effect.

SMILES | activity change, negative = inhibition | Potency
Cc1ccc(-c2nnn(CCC(=O)N3CCCCC3C)n2)cc1 (stereo not drawn) | inactive: 6.97% | 
O=C(Nc1ccc(N2CCCCCC2)cc1)c1cccc(S(=O)(=O)N2CCOCC2)c1 |  | inconclusive: 12.6 µM [inhibitor, partial curve, poor fit]
COC(=O)c1ccc(Cl)cc1N(Cc1c(F)cccc1Cl)S(C)(=O)=O |  | inconclusive: 10 µM [inhibitor, partial curve, poor fit]
CCOC(=O)c1c(C)[nH]c(C(=O)COC(=O)[C@H](C)NC(=O)c2ccccc2Cl)c1C | inactive: 0.117% | 
Cc1ccc(-n2c(SCC(=O)Nc3nccs3)nc3c(c2=O)SCC3)cc1 |  | inconclusive: 29.1 µM [inhibitor, single point]
O=c1[nH]c2cccc(Cl)c2n(CCNc2ncc(C(F)(F)F)cc2Cl)c1=O |  | inconclusive: 8.91 µM [inhibitor, partial curve, poor fit]
Cc1ccc(Cn2c(=O)n(CCc3ccccc3)c(=O)c3c(C)c(C)sc32)cc1 | inactive: 0.978% [at 46.1 µM] | 
C/C(N)=C(/C#N)C(=O)CSc1nc2ccccc2c(=O)n1CCCO |  | inconclusive: 0.447 µM [inhibitor, single point]
Cc1[nH]c2ccccc2c1C(=O)COC(=O)Cn1cnc2ccccc21 |  | inconclusive: 1.12 µM [activator, partial curve, poor fit]
N/N=C1\CCCc2c1[nH]c1ccc([N+](=O)[O-])cc21 | inactive: 3.41% [at 46.1 µM] | 
Cn1c(=O)cc(SCC(=O)N2CCOCC2)c2ccc(Cl)cc21 |  | inconclusive: 25.1 µM [inhibitor, single point]
Cc1ccc(NC(=O)C(=O)NCCCN2CCCC2=O)cc1 | inactive: -26.9% | 
O=C(N/N=C\c1ccc([N+](=O)[O-])o1)C1COc2ccccc2O1 (stereo not drawn) |  | inconclusive: 15.8 µM [inhibitor, partial curve, poor fit]
Cc1ccccc1Cc1c(C)nc2c(C(=O)N3CCN(Cc4ccc5c(c4)OCO5)CC3)cnn2c1C |  | inactive
Cc1cccc(C)c1NC(=O)CN(C)C(=O)C(c1ccccc1)c1ccccc1 | inactive: 5.31% [at 46.1 µM] | 
COc1ccc(OCC(=O)Nc2ccccc2N2CCCCC2)cc1 |  | inconclusive: 3.55 µM [inhibitor, partial curve, poor fit]
Cc1ccc(S(=O)(=O)Nc2nc(C)c(C(=O)NNS(=O)(=O)c3cc(C)ccc3C)s2)cc1 | inactive: -12.7% [at 46.1 µM] | 
O=C(CSc1ncc(-c2ccccc2)[nH]1)Nc1ccc(F)cc1F |  | inconclusive: 35.5 µM [activator, single point]
CCN1CCN(S(=O)(=O)c2ccc(Cl)c(C(=O)N(C)CCOc3ccc(Cl)cc3)c2)CC1 |  | inconclusive: 35.5 µM [inhibitor, single point]
CN(Cc1ccsc1)C(=O)Cn1cc(Br)ccc1=O | inactive: 13.7% [at 46.1 µM] | 
O=C(CCCCn1c(=O)c2ccccc2n(CC(=O)Nc2ccc(F)cc2F)c1=O)NCc1ccccc1Cl | inactive: 0.193% [at 46.1 µM] | 
COc1ccc(CCNC(=O)Cn2nnc(-c3ccc(OC)c(OC)c3)n2)cc1OC | inactive: 0.241% [at 46.1 µM] | 
COc1ccc(CCNC(=O)CSc2cn(CCNC(=O)c3ccccc3F)c3ccccc23)cc1OC |  | inconclusive: 12.6 µM [inhibitor, single point]

SMILES | activity change, negative = inhibition | Potency
COc1ccc(CNC(=O)CN=C2NC(=O)C(c3ccccc3)(c3ccccc3)N2)cc1 | inactive: 37.2% | 
COc1ccc(S(=O)(=O)/N=C2/NC(=O)/C(=C\c3ccco3)S2)cc1 |  | inconclusive: 29.1 µM [activator, single point]
Cn1c(CSCc2ccc(F)cc2)nnc1SCC(=O)N1CCN(c2ccccc2)CC1 |  | inconclusive: 11.2 µM [inhibitor, partial curve, poor fit]
CSc1nc(/C=C2\C=Nc3ccccc32)c(O)n1C |  | inconclusive: 0.447 µM [inhibitor, partial curve, poor fit]
Cc1ccc(S(=O)(=O)N(C)C)cc1NC(=S)Nc1cccc2ccccc12 | inactive: -1.2% [at 46.1 µM] | 
COc1cc(COCC(O)CN2CCN(Cc3ccc4c(c3)OCO4)CC2)cc(OC)c1OC (stereo not drawn) |  | inconclusive: 1.58 µM [inhibitor, partial curve, poor fit]
COc1ccc(Nc2cc(C(=O)NCc3cccs3)c3ccccc3n2)cc1 | inactive: -0.746% [at 46.1 µM] | 
CCOc1ccc(NS(=O)(=O)c2cc(NC(=O)CCNC(=O)c3ccco3)ccc2OC)cc1 |  | inconclusive: 0.316 µM [activator, full curve, poor fit]
NC(=O)c1nsc(C(=O)N(c2cccc(F)c2)C(C(=O)NC2CCCC2)c2ccco2)c1N (stereo not drawn) |  | inconclusive: 2.82 µM [inhibitor, single point]
CCOC(=O)c1ccc(CC(=O)c2ccc(O)c(O)c2O)o1 | inconclusive: 32.5% [activator] [at 46.1 µM] | 
O=C1NC(=S)SC1=Cc1ccc(N(CCCl)CCCl)cc1 |  | inconclusive: 11.2 µM [inhibitor, partial curve, poor fit]
Cc1csc(NC(=O)C2CC(=O)N(Cc3ccco3)C2)n1 (stereo not drawn) | inactive: 2.82% | 
O=C1/C(=C/c2ccncc2)SC(=S)N1C1CCCCC1 |  | inconclusive: 2.51 µM [activator, partial curve, poor fit]
O=C(/C=C/c1ccc2c(c1)OCO2)NCC1CCCO1 (stereo not drawn) | inactive: -7.89% [at 46.1 µM] | 
N#CC1(c2nc3ccccc3[nH]2)CC1c1ccc2c(c1)OCO2 (stereo not drawn) | inactive: -20.6% | 
Fc1ccccc1Nc1nc2c(s1)CCc1ccccc1-2 |  | inconclusive: 16.4 µM [inhibitor, single point]
O=C(c1ccc([N+](=O)[O-])cc1)N1CCOCC1 | inactive: 12.1% [at 46.1 µM] | 
COc1ccc(C(C(=O)NC(C)(C)C)N(Cc2cccs2)C(=O)CCC(=O)Nc2cc(C)on2)cc1 (stereo not drawn) |  | inconclusive: 10 µM [inhibitor, partial curve, poor fit]
COc1ccc(NC(=O)CSc2nc(-c3ccc(OC)c(OC)c3)[nH]c2-c2ccc(C)cc2)cc1 | inactive: -23.1% [at 46.1 µM] | 
C#CCn1c2ccccc2c2nc3ccccc3nc21 |  | inconclusive: 1.26 µM [activator, single point]
O=C(NC(=S)Nc1cccc(Cl)c1N1CCCCC1)c1cccs1 |  | inconclusive: 18.3 µM [inhibitor, partial curve, poor fit]
O=C(Nc1ccsc1C(=O)O)c1ccccc1 |  | inconclusive: 14.1 µM [activator, partial curve, poor fit]
CC(C)C[C@H](N)c1nnc(S(=O)(=O)Cc2cccc(F)c2)o1 |  | inconclusive: 14.6 µM [inhibitor, partial curve, poor fit]

As a working copy, 2 of the compounds above.
SMILES | activity change, negative = inhibition | Potency
Cc1ccc(S(=O)(=O)N(C)C)cc1NC(=S)Nc1cccc2ccccc12 | inactive: -1.2% [at 46.1 µM] | 
COc1cc(COCC(O)CN2CCN(Cc3ccc4c(c3)OCO4)CC2)cc(OC)c1OC (stereo not drawn) |  | inconclusive: 1.58 µM [inhibitor, partial curve, poor fit]

A few values from the list.
Potency with Fc1ccccc1Nc1nc2c(s1)CCc1ccccc1-2 reads inconclusive: 16.4 µM [inhibitor, single point]
Potency with COc1ccc(C(C(=O)NC(C)(C)C)N(Cc2cccs2)C(=O)CCC(=O)Nc2cc(C)on2)cc1 (stereo not drawn) reads inconclusive: 10 µM [inhibitor, partial curve, poor fit]
activity change, negative = inhibition with COc1ccc(Nc2cc(C(=O)NCc3cccs3)c3ccccc3n2)cc1 reads inactive: -0.746% [at 46.1 µM]

Later entries.

SMILES | activity change, negative = inhibition | Potency
COc1cccc(NC(=O)Nc2nc(-c3ccc(OC)c(OC)c3)cs2)c1 |  | inconclusive: 6.31 µM [inhibitor, partial curve, poor fit]
COc1ccc(OCC(=O)Nc2nc(-c3ccc(Br)cc3)ns2)cc1 | inactive: 1.05% [at 46.1 µM] | 
CCOC(=O)c1ccccc1NC(=O)c1c(O)c2ccccc2n(CC)c1=O | inactive: 1.99% | 
O=C(Nc1ccccc1C(=O)O)c1ccc(NC(=O)C2CCCCC2)cc1 | inactive: -6.35% | 
CCc1nnc(NC(=O)CSc2ncc(-c3ccccc3)n2C)s1 |  | inconclusive: 7.3 µM [activator, partial curve]
O=C(COC(=O)c1ccc(F)cc1F)NC1CC1 |  | inconclusive: 11.2 µM [activator, partial curve, poor fit]
COc1cccc(CN2CCNC(=O)C2CC(=O)N(C)CCc2ccccn2)c1 (stereo not drawn) |  | inconclusive: 5.62 µM [inhibitor, single point]
C=COC(=O)CSc1nc(-c2cccs2)ccc1C#N |  | inconclusive: 29.1 µM [activator, single point]
COc1ccc(O)c(/C=C(\C#N)C(=O)Nc2cccnc2)c1 |  | inconclusive: 0.651 µM [activator, full curve, poor fit]
COc1ccc(C2CC(c3ccccc3)=NN2C(=O)COC(=O)c2cnc(Cl)c(Cl)c2)cc1 (stereo not drawn) |  | inconclusive: 1.41 µM [inhibitor, full curve, poor fit]
COc1ccccc1CN(Cc1ccco1)c1cnc(S(C)(=O)=O)nc1C(=O)Nc1ccccc1Cl |  | inconclusive: 35.5 µM [inhibitor, partial curve, poor fit]
O=C(CCCn1c(=O)[nH]c2ccsc2c1=O)N1CCN(c2cccc(C(F)(F)F)c2)CC1 | inactive: -1.42% [at 46.1 µM] | 
O=[N+]([O-])c1ccc(/C=N/Nc2ncccc2[N+](=O)[O-])s1 | inactive: 16.8% [at 46.1 µM] | 
CN1CCN(/N=C/c2nc(-c3ccccc3Cl)n3ccccc23)CC1 | inactive: -9.48% | 
Clc1ccccc1CSc1cnnc2ccccc12 |  | inconclusive: 5.62 µM [activator, single point]
CCCn1ncc(CN2CCC(Cc3cccc(F)c3)(C(=O)OCC)CC2)c1C |  | inconclusive: 35.5 µM [inhibitor, single point]
NC(=O)NC(=O)CSc1nnc(-c2ccco2)n1Cc1ccccc1 | inactive: 18.9% | 
O=C1/C(=C/c2cccs2)COc2ccccc21 |  | inconclusive: 5.62 µM [inhibitor, partial curve, poor fit]
Cc1ccc(C)c(OCCC(=O)Nc2cccc(S(=O)(=O)N3CCCCC3)c2)c1 |  | inconclusive: 35.5 µM [inhibitor, single point]
O=C(CCn1c(=O)[nH]c2ccccc2c1=O)N1CCN(c2cccc(C(F)(F)F)c2)CC1 |  | inconclusive: 0.058 µM [inhibitor, full curve, poor fit]
COc1ccc(-c2csc(NC(=O)c3ccc(S(=O)(=O)N4CCc5ccccc5C4)cc3)n2)c(OC)c1 |  | inconclusive: 1.58 µM [inhibitor, partial curve, poor fit]
CCOC(=O)N/N=C/c1ccccc1OCc1ccc(Cl)cc1 |  | inconclusive: 14.6 µM [activator, single point]
